Measured values reported in PubChem BioAssay AID1745846 (National Center for Advancing Translational Sciences (NCATS), 2022).
Screen size: about 1,400 compounds; about 30 (2%) were called active. Another 15% or so got no clear call; they are omitted. Calls come from the whole dose curve; as a rule, active = well fitted inhibition curve with a large enough effect; inconclusive = small, poorly fitted or top-dose-only effect; inactive = flat fitted curve, though single readings scatter. Some of the results follow.

assay: Firefly Luciferase Counterscreen for Inhibitors of ATXN expression; conditions: luminescence; series mostly up to 57.5 µM; activity change, negative = inhibition: at the top concentration
Method in brief: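 Recombinant firefly luciferase at 10 nM final in 50 mM Tris pH 7.5, 10 mM MgCl2, 0.05% BSA, 0.01% Tween20 with substrate; compounds up to 57 uM final, 10 min room temperature, end-point luminescence. Buffer-only wells define 100% inhibition.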
% is set by controls: 0 for no effect and ±100 for the full control effect; potency is the fitted concentration of half-maximal effect.

| SMILES | activity change, negative = inhibition | Potency |
| --- | --- | --- |
| CCOc1cc(/C=N\NC(=O)c2ccc(NC(=O)CC)cc2)ccc1OC(=O)c1ccccc1 | inactive: 2.07% |  |
| C/C(=C\C(=O)c1ccc(Br)cc1)NNC(=O)c1ccc(O)cc1 | inactive: 2.14% |  |
| Cc1nnc(N/N=C/c2ccccn2)[nH]c1=O | inactive: -3.48% |  |
| CN(C)CCC(c1ccc(Br)cc1)c1ccccn1 (centres undefined) | inactive: 4.51% |  |
| Fc1ccc2[nH]c3c(N4CCc5ccccc5C4)ncnc3c2c1 | inactive: -4.07% |  |
| S=C(Nc1cc(Cl)ccc1Oc1ccccc1)N1CCN(c2ccccn2)CC1 | inactive: -1.6% |  |
| Cc1ccc(S(=O)(=O)/C(=C/Cl)NC(=O)c2ccccc2)cc1 | inactive: 2.33% |  |
| CN(C)CCNc1ncnc2c1ncn2[C@H]1CN(Cc2ccc(-c3ccccc3)cc2)C[C@@H](CO)O1 | inactive: -0.281% |  |
| CC1=CC(C)(C)Nc2ccc(OC(=O)CN3C(=O)c4cccc5cccc(c45)C3=O)cc21 | inactive: -3.93% |  |
| O=c1nc(N/N=C/c2ccccn2)cn[nH]1 | inactive: -1.23% |  |
| Cc1nnc(SC(C)C(=O)Nc2ccc(Cl)cn2)n1Cc1ccccc1 (centres undefined) | inactive: -1.28% |  |
| CCc1ccc(-c2csc(NC(=O)C3CC(=O)N(c4ccc5c(c4)OCCO5)C3)n2)cc1 (centres undefined) | inactive: -16.1% |  |
| CN(C)c1ccc(NC(=O)Nc2nc(C(N)C3CCCCC3)cs2)cc1 (centres undefined) | inactive: -7.26% |  |
| COc1cc(OC)cc(-c2cc3nc(C)c(CCC(=O)O)c(C)n3n2)c1 |  | active: 12.6 µM |
| CN(C)CCCN(C(=O)c1ccc2c(c1)CCCC2)c1nc2cc3c(cc2s1)OCO3 | inactive: 0.029% |  |
| CC(C)CC(NC(=O)c1ccc(Cl)cc1)C(=O)OCC(=O)c1ccc2c(c1)NC(=O)CO2 (centres undefined) | inactive: -4.97% |  |
| COc1ccc(C(=O)NC(=S)NNC(=O)c2c(-c3ccccc3)noc2C)cc1OC | inactive: -9.76% |  |
| Cc1cc(Cl)c(C(=O)Nc2cccc(C(F)(F)F)c2)c(C)n1 | inactive: 0.27% |  |
| CCn1nc(C(=O)Nc2ccccc2N2CCCC2)c2ccccc2c1=O | inactive: -0.973% |  |
| O=C(N/N=C/c1cc([N+](=O)[O-])ccc1O)c1ccc(COc2ccc3c(c2)CCC3)o1 | inactive: -5.38% |  |
| O=C(Nc1ccc2oc(=O)ccc2c1)c1ccc(-c2cccc(Cl)c2)o1 | inactive: 1.78% |  |
| Cc1cc(SCC(=O)N/N=C/c2ccc(O)cc2O)c(C)cc1Br | inactive: -11.7% |  |
| N#Cc1c(N)n(C2OC(CO)C(O)C2O)c2ncnc(N)c12 (centres undefined) | inactive: 2.38% |  |
| COc1ccc(/C=C/C(=O)c2ccc([N+](=O)[O-])o2)cc1OC | inactive: -1.12% |  |
| Oc1c(CN2CCN(c3ccccc3)CC2)cc(Br)c2cccnc12 | inactive: -0.274% |  |

Copied from the list.
Value of CN(C)CCNc1ncnc2c1ncn2[C@H]1CN(Cc2ccc(-c3ccccc3)cc2)C[C@@H](CO)O1 under activity change, negative = inhibition: inactive: -0.281%
Value of COc1cc(OC)cc(-c2cc3nc(C)c(CCC(=O)O)c(C)n3n2)c1 under Potency: active: 12.6 µM
Value of CC1=CC(C)(C)Nc2ccc(OC(=O)CN3C(=O)c4cccc5cccc(c45)C3=O)cc21 under activity change, negative = inhibition: inactive: -3.93%
Value of O=c1nc(N/N=C/c2ccccn2)cn[nH]1 under activity change, negative = inhibition: inactive: -1.23%
Value of Cc1cc(SCC(=O)N/N=C/c2ccc(O)cc2O)c(C)cc1Br under activity change, negative = inhibition: inactive: -11.7%
Value of Cc1cc(Cl)c(C(=O)Nc2cccc(C(F)(F)F)c2)c(C)n1 under activity change, negative = inhibition: inactive: 0.27%

Additional structures follow:

| SMILES | activity change, negative = inhibition | Potency |
| --- | --- | --- |
| O=C1Nc2c(Br)cc(Br)c3cccc1c23 | inactive: 2.55% |  |
| COCCNC(=O)c1cccc(Nc2nc(-c3ccccc3)c3cc(Cl)ccc3n2)c1 | inactive: 0.238% |  |
| Cc1cc(C(=O)CN2C(=O)c3ccccc3S2(=O)=O)c(C)n1CC1CCCO1 (centres undefined) |  | active: 6.31 µM |
| CCC1=C(OC(=O)N(CC)CC)N2C(=O)OC(=NCCc3c[nH]c4ccccc34)[C@]2(Cc2ccccc2)[C@H]2C1=CC[C@H]1C(=O)N(c3ccccc3)C(=O)[C@H]12 | inactive: 1.45% |  |
| COc1cccc(C(=O)Oc2c(CN3CCOCC3)cc(Cl)c3cccnc23)c1 | inactive: -0.59% |  |
| COC(=O)C1=C(C)N(Cc2ccccc2)C(=NCCc2cccnc2)N[C@H]1c1ccc(Br)cc1 | inactive: -2.23% |  |
| COc1ccc2c(-c3ccc(S(N)(=O)=O)cc3)c(-c3ccc(S(C)(=O)=O)cc3)sc2c1 | inactive: -0.809% |  |
| COC(=O)N/N=C/c1cn(CC(C)COc2ccccc2)c2ccccc12 (centres undefined) | inactive: -3.7% |  |
| CCCCC(=O)NC(c1ccccc1Cl)c1ccc2cccnc2c1O (centres undefined) | inactive: 1.43% |  |
| Cc1ccc(C(=O)N/C(=C/c2ccc(-c3ccc([N+](=O)[O-])cc3)o2)C(=O)NCCCN(C)C)cc1 | inactive: -0.319% |  |
| Cc1ccc(C(=O)N(CCCN(C)C)c2nc3ccc(Cl)cc3s2)cc1C | inactive: 0.344% |  |
| CCOC(=O)c1c(CSc2nc(C)cc(C)c2C#N)n(C)c2cc(Br)c(OC(C)=O)cc12 | inactive: 2.39% |  |
| COc1cc2c3nnc(-c4ccc(F)cc4)c-3cn(Cc3ccc(C)cc3)c2cc1OC | inactive: 2.15% |  |
| c1ccc(-c2nnc(-c3ccccn3)nc2NC2CCCCC2)cc1 | inactive: -3.58% |  |
| Cn1c2ccccc2c(=O)c2c(=O)n(C3CCCCC3)c(-c3cccs3)nc21 | inactive: -7.28% |  |
| O=C(COc1ccc(Cl)cc1)N/N=C/c1cccc2cccnc12 | inactive: 3.77% |  |
| CN1CCN(CCNC(=O)c2ccc3nc(-c4ccc(F)cc4)c(-c4ccc(F)cc4)nc3c2)CC1 | inactive: 1.75% |  |
| CC(=NNc1nc2ccccc2o1)c1ncccn1 |  | active: 14.1 µM |
| Oc1c(Cl)cc(Cl)cc1/C=N/Nc1ncc(Br)cn1 | inactive: 0.321% |  |
| CCc1ccc(-c2cc(C(F)(F)F)n3nc(C(=O)Nc4cnn(Cc5ccc(C)cc5)c4)cc3n2)s1 | inactive: 4.16% |  |
| CCN1CCN(c2ccc(Cl)cc2NC(=O)c2ccc(-n3nc(C)cc3C)cc2)CC1 | inactive: 1.92% |  |
| COc1ccc(C(CCNC(C)c2ccccc2)c2ccc(F)cc2)cc1 (centres undefined) | inactive: 0.131% |  |
| COc1cccc(NC(=S)/C(=C(\[O-])c2cc(C)n(-c3ccccc3F)c2C)[n+]2ccc(N(C)C)cc2)c1 |  | active: 15.8 µM |
| Cn1nccc1C(=O)N1CCCC(C(=O)c2cccc3ccccc23)C1 (centres undefined) | inactive: -5.05% |  |
| CCOC(=O)c1c(-c2ccccc2)oc2cc(CN(C)C)c(O)c(CN(C)C)c12 | inactive: 1.49% |  |

| SMILES | activity change, negative = inhibition | Potency |
| --- | --- | --- |
| CCCC(=O)NC(c1ccc(OC)cc1)c1ccc2cccnc2c1O (centres undefined) | inactive: -0.133% |  |
| Cc1c(C(=O)Nc2nonc2-c2ccc(F)cc2)oc2ccc(F)cc12 | inactive: -6.36% |  |
| CN(C)C(CNC(=O)c1cccc(S(=O)(=O)N2CCN(c3ccc(F)cc3)CC2)c1)c1ccccc1 (centres undefined) | inactive: 0.537% |  |
| Nc1cc2c3c(cccc3c1)C(=O)N(CCN1CCCC1)C2=O | inactive: -0.359% |  |
| CC1CC2(C)Oc3ccccc3CC2C(C)C1CNCCCN(C)C (centres undefined) | inactive: 3.4% |  |
| O=[N+]([O-])c1cc(Cl)c(O)c2ncccc12 | inactive: -17.6% |  |
| CC(=O)Nc1cc(-c2ccc(C(=O)NC3CC3)cc2)cn2c(-c3cccc(C(C)=O)c3)cnc12 | inactive: -11.2% |  |
| CC(=O)Nc1cccc(-c2ccnc3c2CC(C)(C(=O)Nc2ccc(Cl)c(C(F)(F)F)c2)O3)c1 (centres undefined) | inactive: -1.06% |  |
| O=C(CSc1nc2ncc(Cl)cc2[nH]1)Nc1cccc(F)c1 | inactive: -2.03% |  |
| Cc1[nH]c2ccccc2c1SCc1nnc(SCc2ccc(Cl)cc2)n1C | inactive: -1.46% |  |
| O=C(O)CCn1cc(/C=C/C(=O)c2ccc(Cl)cc2)c(-c2ccc(Br)cc2)n1 | inactive: -19.4% |  |
| COc1ccc(CNC(=O)Nc2nc(C(N)Cc3ccc(C(F)(F)F)cc3)cs2)cc1 (centres undefined) | inactive: -2.52% |  |
| COc1ccc(-n2nc(C(=O)NCC(=O)Nc3cccc(Cl)c3)c3ccccc3c2=O)cc1OC | inactive: 1.16% |  |
| CC(=O)c1cccc(-c2csc3ncnc(Sc4nnnn4C)c23)c1 | inactive: -1.25% |  |
| COc1cccc(S(=O)(=O)NCc2ccc(C(=O)Nc3cccc(Cl)c3)cc2)c1 | inactive: -2.18% |  |
| Oc1c(C(Nc2nccs2)c2ccc(C(F)(F)F)cc2)ccc2cccnc12 (centres undefined) | inactive: -8.69% |  |
| N/C(=N\NC(=O)c1sccc1OCc1ccc(Cl)cc1Cl)c1ccccn1 | inactive: -1.44% |  |
| CCOC(=O)N1CCN(c2ncnc3c2[nH]c2ccc(F)cc23)CC1 | inactive: -1.8% |  |
| O=C(CN1CC(c2ccccc2)CC1=O)N/N=C/c1cc(Br)ccc1O (centres undefined) | inactive: -4.24% |  |
| COc1cc2c(C(=O)N3CCOCC3)c(CSc3ccccc3)n(C)c2cc1Br | inactive: -1.61% |  |
| CCOc1ccc(-n2c(SCc3ccc([N+](=O)[O-])cc3)nnc2-c2ccccc2)cc1 | inactive: -9.1% |  |
| Cc1ccccc1C(=O)/C(C#N)=N/Nc1c(C)n(C)n(-c2ccccc2)c1=O | inactive: -0.209% |  |
| Cc1cc(NC(=O)CSc2nc3c(sc4ccccc43)c(=O)n2CCCN2CCOCC2)n[nH]1 | inactive: -0.172% |  |
| O=[N+]([O-])c1ccc(O)c(/C=N/Nc2ccccn2)c1 | inactive: -4.31% |  |
| Oc1c(C(c2ccccn2)N2CCCCC2)cc(Cl)c2cccnc12 (centres undefined) | inactive: -5.74% |  |

| SMILES | activity change, negative = inhibition | Potency |
| --- | --- | --- |
| COc1ccc(Oc2c(Cl)cnn(-c3ccc(C)cc3)c2=O)cc1 | inactive: -2.27% |  |
| CC(=O)Nc1ccc(Nc2c3ccccc3nc3ccccc23)cc1 | inactive: -8.27% |  |
| COc1ccc(OCCNC(=O)C2(C)CCN2Cc2ccc3ccccc3c2)cc1 (centres undefined) | inactive: -2.48% |  |
| Cc1cccn2c(=O)c(C(=O)NC3CC(C)CC(C)(C)C3)c(O)nc12 (centres undefined) | inactive: 2.03% |  |
| OCCN1CCN(Cc2cc(Cl)c3cccnc3c2O)CC1 | inactive: 0.949% |  |
| O=C(COC(=O)c1cc([N+](=O)[O-])ccc1N1CCOCC1)Nc1ccc(Cl)cn1 | inactive: 1.13% |  |
| CCOc1ccc(C(=O)Nc2ccc(Cc3ccncc3)cc2)cc1Br | inactive: -16.7% |  |
| CN1CCN(c2ccccc2NC(=O)c2ccc(-c3ccc(Cl)c(Cl)c3)o2)CC1 | inactive: 2.05% |  |
| Cc1ccc(NC(=O)COc2ccc(Br)cc2CO)cc1S(=O)(=O)N1CCOCC1 | inactive: -4.3% |  |
| CC(=O)N1c2ccc(S(=O)(=O)N3CCC(C(=O)N4CCN(c5ccc(Cl)cc5)CC4)CC3)cc2CC1C (centres undefined) | inactive: -0.287% |  |
| CCOC(=O)c1c(C)nn(-c2ccc(NC(=O)c3cccs3)cc2)c1C | inactive: -9.56% |  |
| O=C(CSc1nc(Nc2ccccc2)nc(N2CCOCC2)n1)Nc1cc(Cl)ccc1O | inactive: -11.9% |  |
| CCCCN1C(=O)/C(=C2/Sc3ccccc3N2C)S/C1=N\c1ncn[nH]1 | inactive: -6.33% |  |
| O=c1c2ccccc2sc2c(CO)ccc(NCCN3CCCCC3)c12 | inactive: -1.36% |  |
| COc1ccc2nc(C)cc(Nc3ccc(N4CCOCC4)cc3)c2c1 | inactive: 0.237% |  |
| O=S(=O)(c1ccc(F)cc1)c1snnc1-c1ccccc1 | inactive: 1.44% |  |
| O=C(NNC(=O)C12CC3CC(CC(C3)C1)C2)c1ccccn1 | inactive: -4.43% |  |
| Cc1ccc(C(=O)N/C(=C\c2ccc(-c3ccc(Cl)cc3)o2)C(=O)NCCCN(C)C)cc1 | inactive: -2.25% |  |
| c1ccc(Cn2c(-c3ccccc3)c[n+]3c2SCCC3)cc1 | inactive: 2.54% |  |
| CN(C)CCCN(C(=O)c1ccco1)c1nc2ccc(Br)cc2s1 | inactive: -9.87% |  |
| Cn1c(COc2ccc(Cl)cc2)nnc1SCc1ncc(-c2ccccc2)o1 | inactive: -8.84% |  |
| N#C/C(=C\C=C\c1ccccc1[N+](=O)[O-])C(=O)NC1CCCCC1 | inactive: -6.94% |  |
| O=[N+]([O-])c1ccc(O)c2ncccc12 | inactive: -14.6% |  |
| Cc1cc(O)c(C(C)C)cc1N=Cc1ccccc1[N+](=O)[O-] | inactive: -8.59% |  |
